Part of at least one peptide drawing is inferred or uncertain, most often the ends. Where a SMILES comes first, the peptide text is derived from it. Where no end group is shown, it is not given here.
How the values were obtained:
p33^cdk2 = molecular target: T1, p33^cdk2 (Homo sapiens, UniProt P24941); experiment: p107 30mer-sepharose pull-down from HeLa cell extract, western blot with anti-p33^cdk2 antibody; format: binding
T1 construct: p107 30mer-sepharose beads were incubated with HeLa cell extract; endogenous in cells; host or cells: HeLa

The chains behind the UniProt entries cited, without tags or fusion partners.
UniProt P06493, whole entry: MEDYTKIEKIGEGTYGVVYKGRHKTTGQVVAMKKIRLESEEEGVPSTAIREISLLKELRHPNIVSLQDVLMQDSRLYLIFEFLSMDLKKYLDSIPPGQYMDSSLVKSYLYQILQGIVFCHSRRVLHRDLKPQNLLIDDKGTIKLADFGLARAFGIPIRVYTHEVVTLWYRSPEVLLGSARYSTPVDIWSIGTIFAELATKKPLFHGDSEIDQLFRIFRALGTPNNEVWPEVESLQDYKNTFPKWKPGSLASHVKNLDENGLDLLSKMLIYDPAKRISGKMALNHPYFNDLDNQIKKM

p34^cdc2 = p34^cdc2 (Homo sapiens, UniProt P06493); experiment: Peptide inhibition of p34^cdc2 immune complex histone H1 kinase activity; format: biochemical; design: endogenous in cells; host or cells: HeLa
Procedure: HeLa Cell Lysates: HeLa cell extracts served as a source of p34^cdc2 and p33^cdk2 and were prepared as follows. HeLa cells were lysed in 20 mM N-[2-hydroxyethyl]piperazine-N'-[2-[…]] (HEPES), pH 7.0, 150 mM NaCl, 5 mM sodium vanadate, 10 mM Na4 P2 O7, 1 mM ZnCl2, 2 mM ethylene-diaminetetraacetic acid (EDTA), 2 mM ethylene glycol-bis(β-aminoethyl ether)-N,N,N',N'-tetraacetic acid (EGTA), 1 mM dithiothreitol (DTT), 0.25% (v:v) NP-40, 1 mM Benzamidine, 1 mM phenylmethylsulfonyl fluoride (PMSF) and 20 μg/ml each: N2 S2 O3, leupeptin, Antipan and Pepstatin, followed by centrifugation to remove cell debris. […]
Assay of p34^cdc2 Kinase Activity: Histone H1 kinase reactions were performed in 50 mM Tris, pH 8.0, 10 mM MgCl2, 0.5 mM DTT, 1 mM EGTA plus 0.1 mM ATP, 1 μCi γ-[^32 P]-ATP and 10 μg histone H1 (Boeringer Mannheim), and a source of p34^cdc2. […] The bands were detected by autoradiography and the amount of ^32 P incorporated was quantitated using an Ambis Radioanalytic Imaging System.
As a further test of the association of p107 with p34^cdc2, and to define the minimal sequence necessary for interaction with p34^cdc2, the effect of p107 peptides on the p34^cdc2 immune complex histone H1 kinase activity was assessed. […]

| Compound | binding to p33^cdk2 (p33^cdk2) | inhibition of p34^cdc2 histone H1 kinase activity (in words) (p34^cdc2) |
| --- | --- | --- |
| CC[C@H](C)[C@H](NC(=O)[C@H](Cc1ccc(O)cc1)NC(=O)[C@H](Cc1ccccc1)NC(=O)[C@H](C)NC(=O)[C@H](CS)NC(=O)[C@H](CC(C)C)NC(=O)[C@H](CC(C)C)NC(=O)[C@H](CC(C)C)NC(=O)[C@H](CCC(N)=O)NC(=O)[C@H](CC(=O)O)NC(=O)[C@H](CC(C)C)NC(=O)[C@H](Cc1c[nH]cn1)NC(=O)[C@H](CCCNC(=N)N)NC(=O)[C@H](CC(=O)O)NC(=O)[C@H](CCCCN)NC(=O)[C@H](CCSC)NC(=O)[C@H](CC(C)C)NC(=O)[C@H](CC(=O)O)NC(=O)[C@@H]1CCCN1C(=O)[C@H](CS)NC(=O)[C@H](Cc1c[nH]cn1)NC(=O)[C@@H](NC(=O)[C@H](CC(C)C)NC(=O)[C@@H](NC(=O)[C@H](Cc1ccccc1)NC(=O)[C@H](CCC(=O)O)NC(=O)[C@@H](N)Cc1ccccc1)[C@@H](C)O)C(C)C)C(=O)N[C@@H](CCSC)C(=O)N[C@@H](C)C(=O)N[C@@H](CCCCN)C(=O)O [30mer] (H-FEFTLVHCPDLMKDRHLDQLLLCAFYIMAK-OH) | binds | – |
| CAFYI [NC5mer, CAFYI] | – | retains inhibitory activity |
| LCAFAIMAK [716YA, LCAFAIMAK] | – | totally abrogated |

Source: patent US5625031A, “Peptide inhibitors of the p33^cdk2 and p34^cdc2 cell cycle regulatory kinases and human papillomavirus E7 oncoprotein” (Bristol-Myers Squibb Company, priority 1994, dated 1997)
